The assay addresses Pfs230D1 (domain 1 of Plasmodium falciparum Pfs230 with part of the N-terminal region) (Plasmodium falciparum (3D7)) (UniProt P68874). Put plainly: SEC-MALS + other: SEC-SAXS; SIBYLS beamline 12.3.1; the sample was injected into a size-exclusion column and a post-column splitter directed the eluate to the MALS and SAXS systems; molecular weight from Astra 6 (MALS) and PRIMUS/ATSAS (SAXS); both purified. A general note: In gel filtration, larger molecules generally elute earlier.

Protein sequences, listed by entry. Tags and fused reporters are not part of them. Residues count along the entry.
UniProt P68874, residues 542-736: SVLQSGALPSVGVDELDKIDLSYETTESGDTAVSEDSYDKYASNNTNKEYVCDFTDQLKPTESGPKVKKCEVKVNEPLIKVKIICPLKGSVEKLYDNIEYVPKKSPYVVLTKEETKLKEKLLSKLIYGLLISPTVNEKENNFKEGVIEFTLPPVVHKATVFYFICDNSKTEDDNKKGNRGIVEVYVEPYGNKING

Results are given in words; binding and its absence hold for the method and conditions named.

Consider “Pfs230D1 (domain 1 of Plasmodium falciparum Pfs230 with part of the N-terminal region) (from UniProt P68874 542-736) (domain or fragment)”, for which the binding result was “no binding”.

These data come from article PMC10439124.
